In the supplement of paper PMC8612539:
≈ marks a conversion by molar mass, not a printed value. This continues a long series; more values of the same kind are listed elsewhere.

System: Escherichia coli
Experiment: minimum inhibitory concentration (MIC)
Description: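 Broth microdilution MIC (Sensititre BOPO7F bovine plate, CLSI methods) of 19 antimicrobials against field isolates of P. multocida, M. haemolytica, H. somni (deep nasopharyngeal swabs) and E. coli, Enterococcus spp. (rectal swabs) from weaned dairy heifers. Incubation 16-24 h at 35 C. MIC is the lowest concentration preventing visible growth. Values with <= or > lie at the tested range limits. Trimethoprim-sulfamethoxazole is given as the trimethoprim component of a 1:19 mixture.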

CCCN1C[C@H](C)[C@@H](O)[C@](C)(O)[C@@H](CC)OC(=O)[C@H](C)[C@@H](O[C@H]2C[C@@](C)(OC)[C@@H](O)[C@H](C)O2)[C@H](C)[C@@H](O[C@@H]2O[C@H](C)C[C@H](N(C)C)[C@H]2O)[C@](C)(O)C[C@H]1C [Gamithromycin]
Conditions | minimum inhibitory concentration [µg/mL]
isolate (source animal id): 221 | 8 (≈ 10.3 µM)
isolate (source animal id): 222 | 8 (≈ 10.3 µM)
isolate (source animal id): 223 | 8 (≈ 10.3 µM)
isolate (source animal id): 224 | 8 (≈ 10.3 µM)
isolate (source animal id): 225 | 8 (≈ 10.3 µM)
isolate (source animal id): 226 | 8 (≈ 10.3 µM)
isolate (source animal id): 227 | 2 (≈ 2.57 µM)
isolate (source animal id): 228 | 2 (≈ 2.57 µM)
isolate (source animal id): 229 | > 8
isolate (source animal id): 230 | 8 (≈ 10.3 µM)
isolate (source animal id): 231 | 8 (≈ 10.3 µM)
isolate (source animal id): 232 | 8 (≈ 10.3 µM)
isolate (source animal id): 233 | 2 (≈ 2.57 µM)
isolate (source animal id): 234 | 8 (≈ 10.3 µM)
isolate (source animal id): 235 | 4 (≈ 5.15 µM)
isolate (source animal id): 236 | 8 (≈ 10.3 µM)
isolate (source animal id): 237 | 8 (≈ 10.3 µM)
isolate (source animal id): 238 | 4 (≈ 5.15 µM)
isolate (source animal id): 239 | 4 (≈ 5.15 µM)
isolate (source animal id): 240 | 8 (≈ 10.3 µM)
isolate (source animal id): 241 | 8 (≈ 10.3 µM)
isolate (source animal id): 242 | 4 (≈ 5.15 µM)
isolate (source animal id): 243 | 8 (≈ 10.3 µM)
isolate (source animal id): 244 | > 8
isolate (source animal id): 245 | 8 (≈ 10.3 µM)
isolate (source animal id): 246 | 8 (≈ 10.3 µM)
isolate (source animal id): 247 | 2 (≈ 2.57 µM)
isolate (source animal id): 248 | 8 (≈ 10.3 µM)
isolate (source animal id): 249 | 8 (≈ 10.3 µM)
isolate (source animal id): 250 | 8 (≈ 10.3 µM)
isolate (source animal id): 251 | 8 (≈ 10.3 µM)
isolate (source animal id): 252 | 8 (≈ 10.3 µM)
isolate (source animal id): 253 | 8 (≈ 10.3 µM)
isolate (source animal id): 254 | 8 (≈ 10.3 µM)
isolate (source animal id): 255 | 8 (≈ 10.3 µM)
isolate (source animal id): 256 | 8 (≈ 10.3 µM)
isolate (source animal id): 257 | 8 (≈ 10.3 µM)
isolate (source animal id): 258 | > 8
isolate (source animal id): 259 | 8 (≈ 10.3 µM)
isolate (source animal id): 260 | 8 (≈ 10.3 µM)
isolate (source animal id): 261 | 8 (≈ 10.3 µM)
isolate (source animal id): 262 | 8 (≈ 10.3 µM)
isolate (source animal id): 263 | 8 (≈ 10.3 µM)
isolate (source animal id): 264 | 8 (≈ 10.3 µM)
isolate (source animal id): 265 | 8 (≈ 10.3 µM)
isolate (source animal id): 266 | 4 (≈ 5.15 µM)
isolate (source animal id): 267 | 2 (≈ 2.57 µM)
isolate (source animal id): 268 | 8 (≈ 10.3 µM)
isolate (source animal id): 269 | 8 (≈ 10.3 µM)
isolate (source animal id): 270 | 8 (≈ 10.3 µM)
isolate (source animal id): 271 | 2 (≈ 2.57 µM)
isolate (source animal id): 272 | 8 (≈ 10.3 µM)
isolate (source animal id): 273 | 8 (≈ 10.3 µM)
isolate (source animal id): 274 | 8 (≈ 10.3 µM)
isolate (source animal id): 275 | 4 (≈ 5.15 µM)
isolate (source animal id): 276 | 8 (≈ 10.3 µM)
isolate (source animal id): 277 | 8 (≈ 10.3 µM)
isolate (source animal id): 278 | 8 (≈ 10.3 µM)
isolate (source animal id): 279 | 8 (≈ 10.3 µM)
isolate (source animal id): 280 | 8 (≈ 10.3 µM)
isolate (source animal id): 281 | 8 (≈ 10.3 µM)
isolate (source animal id): 282 | 8 (≈ 10.3 µM)
isolate (source animal id): 283 | 8 (≈ 10.3 µM)
isolate (source animal id): 284 | 8 (≈ 10.3 µM)
isolate (source animal id): 285 | 4 (≈ 5.15 µM)
isolate (source animal id): 286 | 8 (≈ 10.3 µM)
isolate (source animal id): 287 | 8 (≈ 10.3 µM)
isolate (source animal id): 288 | > 8
isolate (source animal id): 289 | 4 (≈ 5.15 µM)
isolate (source animal id): 290 | 8 (≈ 10.3 µM)
isolate (source animal id): 291 | 8 (≈ 10.3 µM)
isolate (source animal id): 292 | 8 (≈ 10.3 µM)
isolate (source animal id): 293 | 8 (≈ 10.3 µM)
isolate (source animal id): 294 | 2 (≈ 2.57 µM)
isolate (source animal id): 295 | 8 (≈ 10.3 µM)
isolate (source animal id): 296 | 8 (≈ 10.3 µM)
isolate (source animal id): 297 | 4 (≈ 5.15 µM)
isolate (source animal id): 298 | 8 (≈ 10.3 µM)
isolate (source animal id): 299 | 8 (≈ 10.3 µM)
isolate (source animal id): 300 | 4 (≈ 5.15 µM)
isolate (source animal id): 301 | 8 (≈ 10.3 µM)
isolate (source animal id): 302 | 4 (≈ 5.15 µM)
isolate (source animal id): 303 | 8 (≈ 10.3 µM)
isolate (source animal id): 304 | 8 (≈ 10.3 µM)
isolate (source animal id): 305 | 8 (≈ 10.3 µM)
isolate (source animal id): 306 | 8 (≈ 10.3 µM)
isolate (source animal id): 307 | 8 (≈ 10.3 µM)
isolate (source animal id): 308 | 8 (≈ 10.3 µM)
isolate (source animal id): 309 | 8 (≈ 10.3 µM)
isolate (source animal id): 310 | 8 (≈ 10.3 µM)
isolate (source animal id): 311 | 4 (≈ 5.15 µM)
isolate (source animal id): 312 | 4 (≈ 5.15 µM)
isolate (source animal id): 313 | 8 (≈ 10.3 µM)
isolate (source animal id): 314 | 4 (≈ 5.15 µM)
isolate (source animal id): 315 | 8 (≈ 10.3 µM)
isolate (source animal id): 316 | > 8
isolate (source animal id): 317 | > 8
isolate (source animal id): 318 | 4 (≈ 5.15 µM)
isolate (source animal id): 319 | 4 (≈ 5.15 µM)
isolate (source animal id): 320 | 8 (≈ 10.3 µM)
isolate (source animal id): 321 | > 8
isolate (source animal id): 322 | 8 (≈ 10.3 µM)
isolate (source animal id): 323 | > 8
isolate (source animal id): 324 | 8 (≈ 10.3 µM)
isolate (source animal id): 325 | > 8
isolate (source animal id): 326 | 4 (≈ 5.15 µM)
isolate (source animal id): 327 | 4 (≈ 5.15 µM)
isolate (source animal id): 328 | 8 (≈ 10.3 µM)
isolate (source animal id): 329 | 8 (≈ 10.3 µM)
isolate (source animal id): 330 | 8 (≈ 10.3 µM)
isolate (source animal id): 331 | 4 (≈ 5.15 µM)
isolate (source animal id): 332 | 8 (≈ 10.3 µM)
isolate (source animal id): 333 | 8 (≈ 10.3 µM)
isolate (source animal id): 334 | > 8
isolate (source animal id): 335 | 8 (≈ 10.3 µM)
isolate (source animal id): 336 | > 8
isolate (source animal id): 337 | 4 (≈ 5.15 µM)
isolate (source animal id): 338 | > 8
isolate (source animal id): 339 | 4 (≈ 5.15 µM)
isolate (source animal id): 340 | > 8
isolate (source animal id): 341 | 4 (≈ 5.15 µM)
